No constants are given. Whether binding was seen depends on the method and setting. Binding seen in cells or lysates may run through a third protein. A yes stands for co-enrichment or nearness to the bait. Other partners may have been found.
Target: T1, p22phox subunit of NADPH oxidase (mouse, endogenous) (mouse (endogenous in synoviocytes of CIA mice, BMDMs, Raw264.7)) (UniProt Q61462)
T1 sequence: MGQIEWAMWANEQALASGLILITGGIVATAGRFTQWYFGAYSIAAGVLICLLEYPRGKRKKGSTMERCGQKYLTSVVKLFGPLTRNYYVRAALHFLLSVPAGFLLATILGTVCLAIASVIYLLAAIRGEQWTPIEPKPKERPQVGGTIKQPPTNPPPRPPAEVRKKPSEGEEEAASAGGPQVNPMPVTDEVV
Assay: affinity purification with mass spectrometry; p22phox complexes precipitated from synovial fluid containing synoviocytes of CIA mice, washed with lysis buffer, NuPAGE gel, silver stain, band analysed by tandem mass spectrometry

- binding: binds
B1: Run/cysteine-rich-domain-containing Beclin1-interacting autophagy protein (Rubicon) (mouse, endogenous) (protein, UniProt Q80U62 1-956)
chain: MRPEGAGMDLGGGDGERLLEKSRREHWQLLGNLKTTVEGLVSANCPNVWSKYGGLERLCRDMQNILYHGLIHDQVCCRQADYWQFVKDIRWLSPHSALHVEKFISLHESDQSDTDSVSERAVAELWLQHSLQCHCLSAQLRPLLGDRQYIRKFYTETAFLLSDAHVTAMLQCLEAVEQNNPRLLAQIDASMFARKQESPLLVTKSQSLTALPGSTYTPPASYAQHSYFGSSSSLQSMPQSSHSSERRSTSFSLSGPSWQPQEDRECLSPAETQTTPAPLPSDSTLAQDSPLTAQEMSDSTLTSPLEASWVSSQNDSPSDVSEGPEYLAIGNPAPHGRTASCESHSSNGESSSSHLFSSSSSQKLESAASSLGDQEEGRQSQAGSVLRRSSFSEGQTAPVASGTKKSHIRSHSDTNIASRGAAGGPRNITIIVEDPIAEGGQYLCSGEGMFRRPSEGQSLISYLSEQDFGSCADLEKENAHFSISESLIAAIELMKCNMMSQCLEEEEVEEEDSDREIQELKQKIRLRRQQIRTKNLLPAYRETENGSFRVTSSSSQFSSRDSTQLSESGSAEDADDLEIQDADIRRSAVSNGKSSFSQNLSHCFLHSTSAEAVAMGLLKQFEGMQLPAASELEWLVPEHDAPQKLLPIPDSLPISPDDGQHADIYKLRIRVRGNLEWAPPRPQIIFNVHPAPTRKIAVAKQNYRCAGCGIRTDPDYIKRLRYCEYLGKYFCQCCHENAQMVVPSRILRKWDFSKYYVSNFSKDLLLKIWNDPLFNVQDINSALYRKVKLLNQVRLLRVQLYHMKNMFKTCRLAKELLDSFDVVPGHLTEDLHLYSLSDLTATKKGELGPRLAELTRAGAAHVERCMLCQAKGFICEFCQNEEDVIFPFELHKCRTCEECKACYHKTCFKSGRCPRCERLQARRELLAKQSLESYLSDYEEEPTEALALEATVLETT
